From the supplement of paper PMC5949888
Most values lie at the floor of the assay. Slopes are relative: functional sequences can read slightly below zero.

These substances were tested on Saccharomyces cerevisiae PS128 hsf1 delta, HSF1(1-493) fusion (assay: growth estimate (transactivation domain function in HSF1 fusion, heat-shock survival) (a.u. (slope of normalised read count over time)); higher = stronger growth at 37°C, i.e. more transactivation activity). Details: library: random library.

Substance	growth estimate
CTTLRGWVLAVTETPTTAMI	< -0.25
NWWAASCHSLV	< -0.25
RSIWDVNED	< -0.25
TVKVRTTQCTGRTRDLIPCR	< -0.25
SYSGGYART	< -0.25
HLAVEVRCVPRIGGIFNAYV	< -0.25
SQVTRPGV	< -0.25
MVEGRLGQIWLVLCHIVSAM	< -0.25
VNVK	< -0.25
KPSQ	< -0.25
TGILNVRRQYSKCPTYHLER	< -0.25
SLRTALRLPNG	< -0.25
PPGRPTRRSLQVVRVIQV	< -0.25
LLQRSGSDVGLYRAS	-0.173
EPWFLPRSLAIRLVLAE	< -0.25
TILRYSLSRPVSLFRTDPAR	< -0.25
APQRCPAIALVTAA	< -0.25
AGSTRGRDVMVLYW	< -0.25
CTARPERTSSRGTAASKGTF	< -0.25
KRM	< -0.25
YLLMRPVCEPSTT	< -0.25
QWTVIVSSAIERIRRSSQLR	< -0.25
QSG	< -0.25

Substance	growth estimate
NRPLDTLGISQSLARRGELV	< -0.25
TAARKGELVEREAFIFRCDE	< -0.25
LYKRCSTGFKIQKIKEPFAI	-0.245
RWVSRSYGRDDYMASGLHDG	-0.246
VYARGTTKLLALIITRPMVR	< -0.25
GCQMRGVAITPAGGEVIVFV	< -0.25
GRVTRQDPCDVHLRK	< -0.25
IIPGASTPCGPSDNFPRIVR	< -0.25
VYPSHTDQ	< -0.25
SSPHLICSVRQVNHSIGFT	< -0.25
NGASG	< -0.25
AVDAPLGRR	< -0.25
FRTYRL	< -0.25
QRGSGGDLSFSA	< -0.25
PILLQ	< -0.25
HISSIARMIRSGWKLPPCEV	< -0.25
QRGEETVRPNWPHAELTSVP	< -0.25
MKASASAGLSSHTVRSNFRG	< -0.25
DNQLRLCEWPLPVL	< -0.25
VTRTVYWFWGSKQTRRPERR	< -0.25
GPWWKVGQTCEGRTI	< -0.25
NLVAAFMDRYGEWKGHSPME	-0.246
DMLSTSSHDAPVGFRNQVNV	< -0.25

Some of the entries so far, with bars between the fields:
Substance | growth estimate
VYPSHTDQ | < -0.25
SSPHLICSVRQVNHSIGFT | < -0.25
NGASG | < -0.25
AVDAPLGRR | < -0.25
FRTYRL | < -0.25
QRGSGGDLSFSA | < -0.25

Reformatted as labelled records: entries from further up
RSIWDVNED
  growth estimate = < -0.25
RWVSRSYGRDDYMASGLHDG
  growth estimate = -0.246
QRGSGGDLSFSA
  growth estimate = < -0.25

Next entries follow:

Substance	growth estimate
ISHSYLIYSSAPALALQRPN	< -0.25
CTSSRGRNCHAELNHLTGHR	< -0.25
IQYLS	< -0.25
ESSSSKRIVVRQKRAAASFI	< -0.25
GGG	< -0.25
SSYDSRWFCCYSSRVGLARP	< -0.25
TFGQVCTSSGESRDGSGRRR	< -0.25
TMTALHNGTCMWCPDGMTVT	< -0.25
GASLFEVRAHLRSRR	< -0.25
WGSRAESTC	< -0.25
YENIGIQDN	-0.231
SDNPSR	< -0.25
GAKMYRWLSTMDGFGSYANP	< -0.25
VVYRL	< -0.25
VDQEHIIVATSFWLY	< -0.25
VVHVVYSITI	< -0.25
KSKDSHK	< -0.25
RCFTRSDDKSLYVQTD	< -0.25
RRIFIPRGFEGVRV	< -0.25
QTKLADGVD	-0.246
LSTMGGIACRHCA	< -0.25
KMKGAE	< -0.25
HGRWQEQRLFFGLLSYCRQD	< -0.25

Substance	growth estimate
IILNALECIL	< -0.25
TGCSGQL	< -0.25
GPLVGQDNEETISAEHSLRV	< -0.25
RPSPWTLTVGAK	< -0.25
YSAGVSVFLLMIAWSVIKNG	< -0.25
YRSVLSCTPIVLETRGSWVA	< -0.25
APTYKLSTQQ	< -0.25
NTEVRLP	< -0.25
VMGYVLGTFVTDVSLKIKIK	< -0.25
GQISQRRYRFSGRSLRHSDY	< -0.25
KGSRIKPAAFNLAWCKALGW	< -0.25
SWPFSEGNGGASPCSQVSPR	< -0.25
LAVTRRIYHLTIVSNRIGH	< -0.25
LVLSSPGLQVIRRVS	< -0.25
PGTS	< -0.25
EVRRCSQARMHQATGREPAI	< -0.25
HLILPGR	< -0.25
PTMLRPPVSRRVHVGVSAEG	< -0.25
TVREALMLTCARS	< -0.25
QTNFAHQG	< -0.25
SMTL	< -0.25
SPEL	< -0.25
DCCEAGRRKSKLT	< -0.25

Substance	growth estimate
ATKIQPIID	< -0.25
RAVGVRGLLTCLARKYNGPQ	-0.231
FRAYPADCLRLQG	< -0.25
GIEMSRCLSHGIQRGAQRCL	< -0.25
DTKVGGHCFWF	-0.175
PGGS	< -0.25
VIILYRDSINGLSSMASRGV	< -0.25
TDRLTGFSLRFSIAAALLP	< -0.25
HALCGGLPCKYNYYGGCV	< -0.25
CCR	< -0.25
QSGDYGYWLTDVGRNHHLKT	< -0.25
KPDCQARLKW	< -0.25
AMA	< -0.25
KSRW	< -0.25
SRSQRLLRPGS	-0.245
CDRSPMIGQVYPHSKSADKG	< -0.25
WLRENQAVVSAWKTSGAGVE	< -0.25
CVILYRTGG	< -0.25
SSSWLSRRPSSDAEYRAVRR	< -0.25
PVFLVGFLLSESHRTRLPGP	< -0.25
LIYSTERLVPRRVRDRLPGP	< -0.25
DIVAEGETQFPGIWRAWTGP	< -0.25
LSIWRVPCQERNA	< -0.25

Substance	growth estimate
TITAWRAWILLPTVVRVNDA	< -0.25
ILSDLTGIVTGLTPSTRGSS	< -0.25
HENG	< -0.25
VKDGGDNLRGISAKLQSSEL	< -0.25
FESDPRVDPTLLRCSRRAFS	< -0.25
LGIQWGYLLRGD	< -0.25
GPIRPNVEGAEYYCHEVPLG	< -0.25
APSVS	< -0.25
GARVGTVINT	< -0.25
LHERGATHGG	< -0.25
PFSPHIHSDLDVVGGPA	< -0.25
FGRALTCLAHNLAGTRCITR	< -0.25
PLYL	< -0.25
FRIA	< -0.25
SDIEQYRTSDGRAHVEF	< -0.25
MVWDGSLVISGSTALALLES	< -0.25
TATICMWDAGRCPNGLMAHS	< -0.25
LREVRIAPCSGFLAEIPGVH	< -0.25
TVLPDELPSTELNLAP	< -0.25
SRTGLVRVRKVRPTMRLG	< -0.25
VDGGPWQASSPPSQLASRSS	< -0.25
GGH	< -0.25
WRRASCSVQAMGSGLL	0.442

Substance	growth estimate
HREREAPCS	< -0.25
GWRRRTDCCITCTCVERRLV	< -0.25
QGSLYHCPGNEGLPWVLGFM	< -0.25
YPDRSGG	< -0.25
VLTGSVLAGNIYYRAKKGTG	< -0.25
FSRM	< -0.25
PGRYVCQTMGS	< -0.25
MLKDLAGRGDGVIVYLALST	< -0.25
RICSGPGTSTHMPGL	< -0.25
FEGPVSYDSSASQPVGEKIR	< -0.25
YTLSSELNYINHVYPGSESA	-0.193
DKAILIRLYALRSYVYTRAS	< -0.25
TGPSNDKCACLPLSLQPFGL	< -0.25
LGREVSYVVAKGSILLEVAS	< -0.25
WIDRLCMTHGLSLKLRGGIG	< -0.25
WSLRDTGTLFPPRGIPVRGG	< -0.25
PPRMFCERENGICRPK	< -0.25
PNWVQRS	< -0.25
TTTDGMQ	< -0.25
PFTSG	< -0.25
GSRVDRCGISARLSGIETLG	< -0.25
